For this experiment, the target named is in vitro translated 35S-labeled pro-caspase-9 (UniProt P55211). Description: GST pull-down of in vitro translated 35S-pro-caspase-9, SDS-PAGE and autoradiography.

Chains of the proteins cited; added tags and fusions are not shown.
UniProt P55211: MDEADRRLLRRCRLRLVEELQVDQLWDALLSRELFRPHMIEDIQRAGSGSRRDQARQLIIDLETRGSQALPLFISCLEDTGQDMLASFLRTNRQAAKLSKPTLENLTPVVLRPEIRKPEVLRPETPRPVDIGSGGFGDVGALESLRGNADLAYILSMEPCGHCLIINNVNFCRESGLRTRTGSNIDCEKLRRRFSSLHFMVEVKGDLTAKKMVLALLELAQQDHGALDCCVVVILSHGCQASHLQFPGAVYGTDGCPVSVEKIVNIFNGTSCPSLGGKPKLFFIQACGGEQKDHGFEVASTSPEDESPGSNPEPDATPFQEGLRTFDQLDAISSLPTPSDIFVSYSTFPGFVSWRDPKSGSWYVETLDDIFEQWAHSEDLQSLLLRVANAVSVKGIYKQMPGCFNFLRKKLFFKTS
UniProt Q13489: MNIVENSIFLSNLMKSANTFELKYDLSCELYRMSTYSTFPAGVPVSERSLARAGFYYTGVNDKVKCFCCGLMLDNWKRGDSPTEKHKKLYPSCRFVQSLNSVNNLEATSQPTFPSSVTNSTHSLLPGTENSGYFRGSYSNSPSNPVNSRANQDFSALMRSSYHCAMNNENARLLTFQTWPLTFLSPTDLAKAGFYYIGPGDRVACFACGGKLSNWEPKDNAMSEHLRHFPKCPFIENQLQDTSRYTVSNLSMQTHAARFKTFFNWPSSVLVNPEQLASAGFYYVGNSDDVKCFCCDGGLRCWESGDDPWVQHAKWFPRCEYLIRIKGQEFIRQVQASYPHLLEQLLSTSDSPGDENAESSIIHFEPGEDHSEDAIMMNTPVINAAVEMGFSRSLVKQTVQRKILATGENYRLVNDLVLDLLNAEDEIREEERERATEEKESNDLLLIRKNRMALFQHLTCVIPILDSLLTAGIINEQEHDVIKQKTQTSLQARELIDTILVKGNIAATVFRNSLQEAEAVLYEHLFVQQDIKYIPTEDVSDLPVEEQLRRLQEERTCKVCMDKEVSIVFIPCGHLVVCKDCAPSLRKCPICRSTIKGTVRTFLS

These are yes or no findings as the source states them, for the method shown. In cells and extracts the contact can be indirect. Some binding calls cover weakened binding; strength is not graded here.

On to GST-c-IAP-2 (from UniProt Q13489 1-604), for which the binding result is “binds”.

The values are drawn from patent US20010018195A1.
